Consider 19 molecules from paper PMC10163288.

The list shows a part of the results.

The chains are these.
B1: il2ra_site1_1z92_sap_16_mot_HHH_b1_05516_af2_000000202_0001_21_38_H_._HHH_b2_03955_0001_0000100001_0000001_0_0001_af2pred_0001_af2pred_1 (protein)
chain: SSSSSRLEKSLRIAVKAMVESANLSEEQQEKLEEVVEELVEEGVDFHEALKILDEVALKLSSSSS
B2: il2ra_site1_2b5i_sap_10_mot_HHH_b1_04650_000000225_0001_43_56_H_._09ac4752b5ccafd30a612070d7dcd4c0_0001_af2_0001_0000600023_0000001_0_0001_af2pred_0001_af2pred (protein)
chain: SSSSDELYHEITELYRKASEAFRNGNPEEAEEILREALRLAEEAGDEVARRDLERLIEILSSSSS
B3: il2ra_site1_3nfp_sap_15_mot_HHH_b1_02721_af2_000000134_0001_39_56_H_._HHH_b2_07721_0001_0000100002_0000001_0_0001 (protein)
chain: SSSSSEAEELAREAREELEEERRRGDDEKFRELAHRLAEELDKLGDPHAVMLLMKKFARASSSSS
B4: il2ra_site1_3nfp_normal_mot_HHH_b2_02292_000000251_0001_1_21_H_._394de4c172568015e4b749d6fe9a249d_0001_0001_0000100003_0000001_0_af2pred_0001_af2pred_swapped (protein)
chain: SAERILEEALENRDPELLEHLLKALREVAKRDPLARELAEKMVRLLLEKDPDNELLEEVLEEVRK
B5: il2ra_site1_2b5i_normal_mot_ems_3hM_3687_af2_000000248_0001_45_64_H_._HHH_b2_03491_af2_0001_0000400021_0000001_0_af2pred_dldesign_0_af2pred (protein)
chain: SSSSSSEAEKIAEDAIAEARKLPDRRAALALLEAAHKEVSALGDEEAADKLERFARELLRSSSSS
B6: il2ra_site2_2erj_normal_mot_c2bf78bdce995293a161f7082e24b401_0001_af2_000000082_0001_17_32_H_._HHH_b1_02143_0001_0000300024_0000001_0 (protein)
chain: SSSSDEELERLYELANILLHLAARNDQEEFEKIYEEAERLAEETDNPNVREILEFLEKHINSSSS
B7: il2ra_site1_2b5i_normal_mot_HHH_b1_08033_000000124_0001_1_20_H_._HHH_b2_01600_0001_0000200009_0000001_0_af2pred_dldesign_0_af2pred (protein)
chain: SSSSSPLIEEAKRRAEEAIAYAKERNNKSTIKILEYGLERLEEDKDPKIAEELKKLADRILSSSS
B8: il2ra_site1_3nfp_sap_21_mot_3ff75f044bbd266f07abdfc5542de534_0001_000000014_0001_18_33_H_._509714e85d23fb3917fd9f3451be2a65_0001_0001_0000500015_0000001_0_0001 (protein)
chain: SSSSTEELQELFHEAFELAKEGDKEEAQEVLEELIELARELGTRNVLRSAERALEMLRRGSSSSS
B9: il2ra_site1_1z92_sap_20_mot_HHH_b2_05734_000000004_0001_1_18_H_._HHH_b1_01340_0001_0000200019_0000001_0_0001 (protein)
chain: DSKAIKWLLEAAKRFGSLETDLRILIRLLAQARRVPPEEAAEILLRILEELGDPEAEEIVREIVK
B10: il2ra_site2_2erj_normal_mot_HHH_b1_07584_000000201_0001_42_55_H_._HHH_b1_01248_0001_0000200004_0000001_0 (protein)
chain: SSSSDELEREVARLAVEAIELAHKGNPEEARKALEEALRLAEENNNETLARYLELALRHLGSSSS
B11: il2ra_site2_2erj_sap_20_mot_HHH_b1_07562_000000147_0001_41_55_H_._HHH_b1_08513_0001_0000200003_0000001_0_0001 (protein)
chain: SSSSDELRELYELLVALLHLVHNNDEEEFEKVVERAEKLAEKLNSESAKEAIEHLERLLGSSSSS
B12: il2ra_site1_3nfp_normal_mot_01923d483164837742cf829bee572cc5_0001_af2_000000153_0001_17_30_H_._HHH_b1_07621_af2_0001_0000700009_0000001_0_af2pred_0001_1_af2pred … (protein)
chain: SSSSEESLREAAKILVEALVKINGLSEEQKKKLEELAEELAERGLSAHEISEFLARLAARLSSSS
B13: il2ra_site2_2erj_sap_19_mot_35d2dc24e2c4431f89e6f806b163ecf8_0001_af2_000000142_0001_35_50_H_._HHH_b2_04240_af2_0001_0000200011_0000001_0_0001 (protein)
chain: SSSSDEKLHEIFRLASELLKAIAEGDEEKAKELFEEVRRVIEENNSENAEEILEWLERHLKSSSS
B14: il2ra_site1_3nfp_sap_11_mot_HHH_b1_01335_af2_000000258_0001_39_53_H_._99fa4ef3a3c7fd23d1d34353b8d2f85a_0001_0001_0000100004_0000001_0_0001 (protein)
chain: DELEEFSEAVKQLAKVAGVPHVEVSVSNGSVEVTFEGDNHDARIASKIVEFHAEKWGIKVEVEVE
B15: il2ra_site1_2b5i_normal_mot_HHH_b2_04910_000000118_0001_1_19_H_._HHH_b1_04606_0001_0000100006_0000001_0_af2pred_dldesign_0_af2pred (protein)
chain: SSSSSPEGERLRELIRKANELYQQGKYDEAKKLLEEALELAKKLGSTLLVKFLESCLKQISSSSS
B16: il2ra_site1_2b5i_normal_mot_2cbe48e66a1f39b3fed734b245ab0a04_0001_000000015_0001_17_31_H_._HHH_b2_00053_0001_0001100018_0000001_0_af2pred_dldesign_0_af2pred (protein)
chain: SSSSSSSAEEEVNKLLEEAAKAEDEIEQSKLLFEALKIARNAKDPELVAKVEARAAELLSSSSSS
B17: il2ra_site2_3nfp_normal_mot_HHH_b1_05627_af2_000000038_0001_43_56_H_._HHH_b1_00337_0001_0000500020_0000001_0 (protein)
chain: SSSSDKQEEYVRIALEIAKLAIEQGDPKAARESLEAALQLAEDIGNPELFQEIEELLEELRSSSS
B18: il2ra_site2_3nfp_normal_mot_HHH_b1_01086_af2_000000264_0001_39_53_H_._a6da1dbab15e72488587f943ddaf1f3f_0001_1_af2_0001_0000500054_0000001_0 (protein)
chain: DREELLERIVREKDPRVEELLEEIKEAKERNDEELLEKLAKRLALIAFELGDPEVFALAADLQSI
B19: il2ra_site1_1z92_sap_15_mot_ems_3hM_2197_000000181_0001_1_19_H_._HHH_b2_02502_af2_0001_0000200003_0000001_0_0001_af2pred_0001_af2pred (protein)
chain: KIEIHISNASPRVQEFIELAKQIPDVEVETENYNEYTVHVKDERLARLLERAAKLSGVEVEVHMS

In this assay the target is il2ra, P01589. As to the kind of experiment: yeast display titration.
As for B1, the “apparent Kd” value is “inactive: no binding seen”.

In the case of B2, the “apparent Kd” value is “inactive: no binding seen”. On to B3, for which the “apparent Kd” value is “inactive: no binding seen”. With B4, the “apparent Kd” value was “inactive: no binding seen”.

With B5, the “apparent Kd” value is “inactive: no binding seen”.

Regarding B6, the “apparent Kd” value is “inactive: no binding seen”.

As for B7, the “apparent Kd” value is “inactive: no binding seen”. The result for B8 reads “inactive: no binding seen”. Next, B9: “inactive: no binding seen”; B10: “inactive: no binding seen”; B11: “inactive: no binding seen”. The result for B12 reads “inactive: no binding seen”; that for B13, “inactive: no binding seen”. Turning to B14, the “apparent Kd” value is “inactive: no binding seen”. As for B15, the “apparent Kd” value is “inactive: no binding seen”. Turning to B16, the “apparent Kd” value was “inactive: no binding seen”.

On to B17, for which the “apparent Kd” value is “inactive: no binding seen”. As for B18, the “apparent Kd” value was “inactive: no binding seen”. As for B19, the “apparent Kd” value was “inactive: no binding seen”.
